# Screening data, single-dose tests

Data taken from ChEMBL document CHEMBL3988442, “University of Dundee, Small-Polar-MMV Screening Library” (2021).

The filed quantity is “Percent Effect” (%). How 0% and 100% were set is not recorded. Most values in the screen are low, and negative values occur. This is an unselected part of the compounds tested.

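Whole-parasite assay of Trypanosoma brucei over 72 hours; the read-out is not stated. Tested at 30 µM. Direction is inferred from retests: higher values go with stronger inhibition. Values scatter widely below zero; nearly all retest evidence comes from the higher of the two concentrations used. About 64,000 compounds were tested under these conditions; 1.5% (about 940) showed 50% or more at least once.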

- CC(C(=O)Nc1ccon1)n1ccc(C(F)(F)F)n1 (centres undefined) | -48.57%
- CCc1cc(=O)[nH]c(-c2ccc(NC(C)CN3CCOCC3)nc2)n1 (centres undefined) | 2.232%
- O=C(C(CNCc1ccccn1)c1ccccc1)N1CCOCC1 (centres undefined) | -18.45%
- OC[C@@H](O)CN(CCC(F)(F)F)c1ncc(Cl)cn1 | -7.393%
- CC(=O)c1ccc(-n2c(C)cn(CCC(=O)NC(N)=O)c2=O)cc1 | 0.6017%
- Cc1ccc(-c2cc(N)c(=O)n(C(C)C(=O)NC(C)C)n2)o1 (centres undefined) | -11.22%
- CC(C)CC(=O)N1CCc2ccc(S(=O)(=O)N3CCN(C)CC3)cc2C1 | -4.354%
- O=C(c1ccncc1)N1CCCn2nnc(Cn3cccn3)c2C1 | -8.551%
- O=C(c1cccnc1)N1CCOC(CCCc2ccccc2)C1 (centres undefined) | -16.26%
- NS(=O)(=O)CCN1CCN(c2ccccc2O)CC1 | -21.43%
- Cc1csc(CCNC(=O)C2CCCN(C3CCOCC3)C2)n1 (centres undefined) | -12.13%
- O=C(c1ccccc1F)N1CCN(c2ccc(-n3cccc3)nn2)CC1 | -4.826%
- O=C(O)C(F)(F)F.O=C(O)C(F)(F)F.O=C(O)C(F)(F)F.O=C(O)C(F)(F)F.[H][C@@]12CCCO[C@]1([H])[C@H](N(C)Cc1cccnc1)CN2Cc1nccn1C | -6.998%
- CN1CCN(c2cc(N3CCCC3CO)ncn2)Cc2ccccc21 (centres undefined) | -11.47%
- CC(C)Cn1cc(C(=O)NC2CCS(=O)(=O)C2)c2ccccc2c1=O (centres undefined) | -7.132%
- O=C(CCNc1ncccn1)N1CCC(Nc2cccnn2)CC1 | -12.3%
- CC(CNC(=O)NCc1ccco1)N1CCc2sccc2C1 (centres undefined) | -68.38%
- CN(C(=O)[C@H]1CSCN1C(=O)OC(C)(C)C)C1CC1 | -17.54%
- O=C(O)C(F)(F)F.[H][C@]12CCN(Cc3ccc(OC)cc3)C[C@@]1([H])OCCN(S(C)(=O)=O)C2 | -32.7%
- Cn1c(SCc2noc(C(C)(C)C)n2)nnc1C1CCS(=O)(=O)C1 (centres undefined) | -15.05%
- Cc1cc(N2CCC(C(=O)O)(n3ccc(C(C)C)n3)CC2)nc(N)n1 | -7.026%
- CCOCCCn1c(NC(=O)c2ccc(C)nc2)nc2ccccc21 | 8.402%
- O=C(O)C(F)(F)F.[H][C@]12CCN(c3ncc(CC)cn3)CC[C@@]1([H])S(=O)(=O)N(CCC(C)C)C2 | 50.26%
- Cc1nc2c(c(NC3CC3)n1)CCN(C(=O)C1(C#N)CC1)CC2 | -17.16%
- CN(C)c1ccc(C(=O)NCCCc2ccccn2)cn1 | 10.49%
- CC(C)Cc1cc(C(=O)NC(C)C)[nH]n1 | -16.46%
- COc1ccc(NC(C)=O)cc1S(=O)(=O)Nc1ccon1 | -5.594%
- CCC1=NOC(CNCc2cnc(-c3ccccc3C)s2)C1 (centres undefined) | -5.816%
- COc1ccc(-c2nc(CN3CCOCS3(=O)=O)c(C)o2)cc1 | 23.81%
- Cc1cc(C)cc(Nc2nc(C)cc(=O)n2CC(=O)NC(C)C)c1 | -32.96%
- Cn1cc(C2CCCN2C(=O)CCCOc2ccc(F)cc2F)cn1 (centres undefined) | -18.25%
- CC(NC(=O)NCc1cccnc1N1CCCCC1)c1nccs1 (centres undefined) | 26.41%
- CCc1ccc(C2CCCN2C(=O)Cc2ccc(NC(C)=O)cc2)o1 (centres undefined) | -2.638%
- O=C(CCC(=O)N1CCOCC1c1ccccc1)c1cccs1 (centres undefined) | -43.77%
- O=C(O)C(F)(F)F.[H][C@@]12CCCO[C@]1([H])[C@H](NC(=O)c1cnn(C)c1)CN2Cc1ccc(F)cc1 | 11.8%
- COc1c(CNC2CCCOc3ccc(F)cc32)c(C(C)C)nn1C.Cl (centres undefined) | -18.54%
- COc1ccccc1OCCCN(C)c1cc(C)nc(N)n1 | 12.94%
- CCOC1CCN(CCc2nc(-c3cccc(Cl)c3)no2)CC1 | -5.887%
- Cc1ccc(C(=O)NS(=O)(=O)c2cc(F)ccc2F)c(=O)[nH]1 | -12.39%
- CS(=O)(=O)c1ccc(CC(=O)N2CCN3CCNC(=O)C3C2)cc1 (centres undefined) | -7.765%
- CCN1CCN(c2ccc(F)cc2C(C)NCc2cscn2)CC1 (centres undefined) | 41.5%
- CCc1nn(-c2cc(Oc3cc(C)ccc3C)nc(C)n2)c(N)c1C#N | -28.04%
- CCn1cc(N)c(-c2nnc3n2CCC3)n1 | -11.61%
- [H][C@@]12CS(=O)(=O)C[C@]1([H])N(Cc1ccc(OC)c(O)c1)CCN2CC1CC1 | 5.795%
- CC(C)(CN1CCOCC1)CN1CCC(Cc2cccc(CO)c2)C1 (centres undefined) | -85.7%
- O=C(O)C(F)(F)F.O=C(O)C(F)(F)F.c1cncc(C2COC3(CCN(CC4CC4)CC3)C2)c1 (centres undefined) | 7.274%
- COc1cc(NC(=O)C2CC(=O)N(c3cccc(F)c3)C2)ncn1 (centres undefined) | 8.982%
- [H][C@]12CC[C@]([H])(CN(S(=O)(=O)N(C)C)C1)N(C(=O)c1cnc(SC)nc1)C2 | -14.02%
- Cc1ccc(C)c2c(O)cc(CNCC(N)=O)nc12 | -70.77%

The first 5 entries again:

compound	effect
CC(C(=O)Nc1ccon1)n1ccc(C(F)(F)F)n1 (centres undefined)	-48.57
CCc1cc(=O)[nH]c(-c2ccc(NC(C)CN3CCOCC3)nc2)n1 (centres undefined)	2.232
O=C(C(CNCc1ccccn1)c1ccccc1)N1CCOCC1 (centres undefined)	-18.45
OC[C@@H](O)CN(CCC(F)(F)F)c1ncc(Cl)cn1	-7.393
CC(=O)c1ccc(-n2c(C)cn(CCC(=O)NC(N)=O)c2=O)cc1	0.6017